Data taken from paper doi:10.1101/2022.02.28.482239.

Chains of the proteins cited; added tags and fusions are not shown. Lines headed by an entry give the natural chain unless they say otherwise; changes in a name come on top.
UniProt P23258: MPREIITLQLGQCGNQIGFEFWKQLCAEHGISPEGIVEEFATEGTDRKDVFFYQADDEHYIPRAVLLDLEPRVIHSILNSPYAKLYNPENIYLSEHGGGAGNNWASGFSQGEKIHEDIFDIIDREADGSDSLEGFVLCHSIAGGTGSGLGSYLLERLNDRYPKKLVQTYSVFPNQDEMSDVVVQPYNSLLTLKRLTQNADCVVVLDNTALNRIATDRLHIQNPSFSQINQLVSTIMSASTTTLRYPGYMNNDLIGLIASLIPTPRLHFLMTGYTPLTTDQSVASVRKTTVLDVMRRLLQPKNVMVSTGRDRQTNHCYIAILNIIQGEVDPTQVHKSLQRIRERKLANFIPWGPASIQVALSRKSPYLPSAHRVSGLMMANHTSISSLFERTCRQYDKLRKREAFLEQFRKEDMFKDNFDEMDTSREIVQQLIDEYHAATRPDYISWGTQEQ

Biological target: T1, wild-type C21orf2 tagged with a C-terminal turbo-GFP (tGFP) (human) (UniProt O43822)
T1 sequence: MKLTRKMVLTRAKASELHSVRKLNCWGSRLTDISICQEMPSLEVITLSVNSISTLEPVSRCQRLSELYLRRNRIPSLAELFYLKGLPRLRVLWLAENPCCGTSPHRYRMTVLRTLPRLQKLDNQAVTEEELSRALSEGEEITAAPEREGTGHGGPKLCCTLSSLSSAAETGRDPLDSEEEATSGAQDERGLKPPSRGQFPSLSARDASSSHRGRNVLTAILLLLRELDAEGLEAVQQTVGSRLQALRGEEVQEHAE
Assay: co-IP

binding: binds
Substance: γ-tubulin (from UniProt P23258)

No constants are given. Whether binding was seen depends on the method and setting. Binding seen in cells or lysates may run through a third protein. Binding can be weak; no strength is given. Where a sequence is shown, tags or fusion partners need not be part of it.
